Experiment [1] concerns the target T1, FIB2 fused to cYFP (Arabidopsis thaliana) (UniProt Q94AH9).
T1 sequence: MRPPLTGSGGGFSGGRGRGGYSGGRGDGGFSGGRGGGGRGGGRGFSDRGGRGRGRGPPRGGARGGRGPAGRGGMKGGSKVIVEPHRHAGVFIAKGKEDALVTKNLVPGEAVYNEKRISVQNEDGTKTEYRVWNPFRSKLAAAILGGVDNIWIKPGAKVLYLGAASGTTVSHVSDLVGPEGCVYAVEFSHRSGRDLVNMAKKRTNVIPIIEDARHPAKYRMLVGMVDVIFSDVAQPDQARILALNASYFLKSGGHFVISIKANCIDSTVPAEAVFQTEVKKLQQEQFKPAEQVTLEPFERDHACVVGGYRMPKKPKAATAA
The experiment is described as follows: split reporter; BiFC in Arabidopsis mesophyll protoplasts; nYFP and cYFP fusions from pBiFCt-2in1-NN, PEG transformation; YFP signal by confocal microscopy after 16 h to 24 h in the dark (legend: 24 h at 25 °C); RFP as internal marker for transformation.

In experiment [2] the target is T1, FIB2 fused to cYFP (Arabidopsis thaliana). The experiment is described as follows: split reporter; BiFC of HD2C, in vivo (Supplement Figure S2); details not shown.
Experiment [3] deals with T2, HD2C (co-IP) (Arabidopsis) (UniProt Q9LZR5).
T2 sequence: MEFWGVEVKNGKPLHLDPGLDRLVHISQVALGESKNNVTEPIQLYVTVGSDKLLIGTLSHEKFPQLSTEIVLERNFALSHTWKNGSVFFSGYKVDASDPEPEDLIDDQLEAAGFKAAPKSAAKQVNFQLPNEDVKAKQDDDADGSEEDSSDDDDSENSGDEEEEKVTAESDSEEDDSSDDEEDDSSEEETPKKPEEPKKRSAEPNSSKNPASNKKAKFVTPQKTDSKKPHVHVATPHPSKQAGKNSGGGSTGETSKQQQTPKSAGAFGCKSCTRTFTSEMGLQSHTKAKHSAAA
The experiment is described as follows: co-IP; Co-IP of HD2C by a former colleague; no details given.

Among the data in PMC10298649 are binding values, retold here.

No constants are given. Whether binding was seen depends on the method and setting. Binding seen in cells or lysates may run through a third protein. Some entries that bind do so weakly or less than the wild type. For part of these data: Where a sequence is shown, tags or fusion partners need not be part of it.

B1: HD2B fused to nYFP (protein, UniProt Q56WH4 1-306)
chain: MEFWGVAVTPKNATKVTPEEDSLVHISQASLDCTVKSGESVVLSVTVGGAKLVIGTLSQDKFPQISFDLVFDKEFELSHSGTKANVHFIGYKSPNIEQDDFTSSDDEDVPEAVPAPAPTAVTANGNAGAAVVKADTKPKAKPAEVKPAEEKPESDEEDESDDEDESEEDDDSEKGMDVDEDDSDDDEEEDSEDEEEEETPKKPEPINKKRPNESVSKTPVSGKKAKPAAAPASTPQKTEEKKKGGHTATPHPAKKGGKSPVNANQSPKSGGQSSGGNNNKKPFNSGKQFGGSNNKGSNKGKGKGRA
Turning to B1, the binding result in experiment [1] is “binds”.

B2: HD2C (BiFC construct) (protein, UniProt Q9LZR5 1-294)
chain: MEFWGVEVKNGKPLHLDPGLDRLVHISQVALGESKNNVTEPIQLYVTVGSDKLLIGTLSHEKFPQLSTEIVLERNFALSHTWKNGSVFFSGYKVDASDPEPEDLIDDQLEAAGFKAAPKSAAKQVNFQLPNEDVKAKQDDDADGSEEDSSDDDDSENSGDEEEEKVTAESDSEEDDSSDDEEDDSSEEETPKKPEEPKKRSAEPNSSKNPASNKKAKFVTPQKTDSKKPHVHVATPHPSKQAGKNSGGGSTGETSKQQQTPKSAGAFGCKSCTRTFTSEMGLQSHTKAKHSAAA
In the case of B2, the binding result in experiment [2] was “binds”.

B3: FIB2 (co-IP) (protein, UniProt Q94AH9 1-320)
chain: MRPPLTGSGGGFSGGRGRGGYSGGRGDGGFSGGRGGGGRGGGRGFSDRGGRGRGRGPPRGGARGGRGPAGRGGMKGGSKVIVEPHRHAGVFIAKGKEDALVTKNLVPGEAVYNEKRISVQNEDGTKTEYRVWNPFRSKLAAAILGGVDNIWIKPGAKVLYLGAASGTTVSHVSDLVGPEGCVYAVEFSHRSGRDLVNMAKKRTNVIPIIEDARHPAKYRMLVGMVDVIFSDVAQPDQARILALNASYFLKSGGHFVISIKANCIDSTVPAEAVFQTEVKKLQQEQFKPAEQVTLEPFERDHACVVGGYRMPKKPKAATAA
On to B3, for which, in experiment [3], the binding result was “binds”.
